A short description of this assay: qHTS Assay for Modulators of Lamin A Splicing. The note with it: HeLa LMNA splicing GFP/RFP minigene ratio, 48 h. A digest of the protocol: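 Read-out is the ratio of GFP to DsRed2 object intensity, acquired by 488 nm laser-scanning cytometry on HeLa lamin A-EGFP minigene reporter cells. Compound incubation 48 hrs at 37 °C in Opti-MEM with 2% FBS; DMSO 0.5% final.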

The mark [1] stands for this setting: measured here: RFP viability control channel.
Setting [2] is: measured here: GFP splicing reporter channel.

For 15 compounds, AC50 results are on record in PubChem BioAssay AID1487 (National Center for Advancing Translational Sciences (NCATS), 2009).

Some of the results follow. These are further read-outs of the screen, such as a control signal, another cell line or another target. No call is given for them. Compounds called inactive in the main read-out are mostly missing here. Potencies come from curve fits of mixed quality, noted in brackets.

The term AC50 denotes the concentration giving half of the maximal activity seen.

As for `Cc1ccc(N2CCN(C(=O)c3c(C)oc4ncnc(N5CCOCC5)c34)CC2)c(C)c1`, under setting [1], the AC50 is 15.8 µM [rising, partial curve].

Turning to `CCOC(=O)CN1C(=O)C(O)(C2CCc3ccccc3C2=O)c2ccccc21` (centres undefined), the AC50 under setting [1] was 25.1 µM [falling, partial curve, poor fit].

Regarding `CCCSc1nc2cc(OC)c(OC)cc2c(=N)n1CCCN1CCOCC1`, under setting [1], the AC50 was 1.26 µM [rising, full curve, poor fit].

As to `Cc1ccc(C(=O)Nc2nnc(S(=O)(=O)N3CCN(c4ccc(F)cc4)CC3)s2)cc1`, the AC50 under setting [2] is 0.126 µM [falling, full curve, poor fit].

As for `Cc1ccc2scc(N3CCCCC3)c(=O)c2c1`, under setting [2], the concentration at half-maximal activity (AC50) was 3.98 µM [rising, full curve, poor fit].

For the compound `O=Cc1ccc(OCC(=O)Nc2ccccc2C(F)(F)F)cc1`, the AC50 under setting [2] was 12.6 µM [rising, single point].

For the compound `CSc1nc(N)c2ncn([C@@H]3O[C@H](COP(=O)(O)OP(=O)(O)OP(=O)(O)O)[C@H](O)[C@H]3O)c2n1`, the AC50 under setting [2] was 0.2 µM [falling, full curve, poor fit].

In the case of `O=C(Cn1c(=O)oc2cc(S(=O)(=O)NCc3ccccc3)ccc21)NCc1ccccc1Cl`, the AC50 by setting is: under setting [2], 3.16 µM [falling, single point]; under setting [1], 3.55 µM [falling, single point].

As for `Cc1ccc(N2CCN(C(=O)C3CCN(c4ncnc5c4nc4n5CCCCC4)CC3)CC2)c(C)c1`, the AC50 under setting [1] is 35.5 µM [falling, single point].

Take `COc1cc([C@H]2Oc3cc([C@H]4Oc5cc(O)cc(O)c5C(=O)[C@@H]4O)ccc3O[C@@H]2CO)ccc1O`: the AC50 under setting [2] was 0.00631 µM [falling, full curve, poor fit] and the AC50 under setting [1] is 0.0178 µM [falling, full curve, poor fit].

On to `COc1ccc(NC(=O)CC2SC(=Nc3ccccc3)NC2=O)cc1` (centres undefined), for which the AC50 is, setting by setting: under setting [2], 8.91 µM [rising, single point]; under setting [1], 3.55 µM [rising, single point].

As to `Cc1occc(=O)c1OCc1ccccc1`, the AC50 under setting [1] was 1.26 µM [falling, partial curve, poor fit].

For `CCOCCCn1c(SC(C(=O)Nc2cc(C)ccc2C)c2ccccc2)nnc1-c1ccc(Cl)cc1` (centres undefined), under setting [2], the half-maximal activity concentration (AC50) was 35.5 µM [rising, single point].

Consider `NC(N)=N[C@@H](CCC(=O)O)C(=O)O`, for which the AC50 by setting is: under setting [2], 17.8 µM [rising, partial curve, poor fit]; under setting [1], 1.58 µM [rising, full curve, poor fit].

In the case of `Cc1ccccc1-c1nc(CS(=O)(=O)CC(=O)NCc2ccc3c(c2)OCO3)c(C)o1`, the AC50 under setting [1] was 11.2 µM [rising, single point].
